Results: publication PMC7156629, “Fluorescence anisotropy assays for high throughput screening of compounds binding to lipid II, PBP1b, FtsW and MurJ” (Scientific Reports, 2020)
Results are given in words; binding and its absence hold for the method and conditions named. Some results given as binding are weak or reduced against the parent protein; the word gives no strength.

Target: T1, FtsW (E. coli) (UniProt P0ABG4)
T1 sequence: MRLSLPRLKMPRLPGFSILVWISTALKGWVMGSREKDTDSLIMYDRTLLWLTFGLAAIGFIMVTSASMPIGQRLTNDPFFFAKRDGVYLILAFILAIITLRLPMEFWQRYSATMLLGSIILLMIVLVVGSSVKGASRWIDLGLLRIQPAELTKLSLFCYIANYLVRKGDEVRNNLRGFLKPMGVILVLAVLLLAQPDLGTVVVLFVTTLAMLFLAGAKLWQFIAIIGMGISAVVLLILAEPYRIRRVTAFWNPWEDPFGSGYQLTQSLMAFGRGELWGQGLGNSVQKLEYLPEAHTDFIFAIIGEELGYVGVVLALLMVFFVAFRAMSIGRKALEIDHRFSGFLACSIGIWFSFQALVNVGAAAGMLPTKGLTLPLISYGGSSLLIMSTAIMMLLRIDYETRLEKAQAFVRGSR
Assay: co-purification; FtsW-PBP3 complex purified as previously described (ref. 13); stock in 50 mM Hepes pH 7.5, 0.3 M NaCl, 10% glycerol, 0.05% DDM

binding: binds
B1: PBP3 (protein, UniProt P0AD68 1-577)
chain: MKAAAKTQKPKRQEEHANFISWRFALLCGCILLALAFLLGRVAWLQVISPDMLVKEGDMRSLRVQQVSTSRGMITDRSGRPLAVSVPVKAIWADPKEVHDAGGISVGDRWKALANALNIPLDQLSARINANPKGRFIYLARQVNPDMADYIKKLKLPGIHLREESRRYYPSGEVTAHLIGFTNVDSQGIEGVEKSFDKWLTGQPGERIVRKDRYGRVIEDISSTDSQAAHNLALSIDERLQALVYRELNNAVAFNKAESGSAVLVDVNTGEVLAMANSPSYNPNNLSGTPKEAMRNRTITDVFEPGSTVKPMVVMTALQRGVVRENSVLNTIPYRINGHEIKDVARYSELTLTGVLQKSSNVGVSKLALAMPSSALVDTYSRFGLGKATNLGLVGERSGLYPQKQRWSDIERATFSFGYGLMVTPLQLARVYATIGSYGIYRPLSITKVDPPVPGERVFPESIVRTVVHMMESVALPGGGGVKAAIKGYRIAIKTGTAKKVGPDGRYINKYIAYTAGVAPASQPRFALVVVINDPQAGKYYGGAVSAPVFGAIMGGVLRTMNIEPDALTTGDKNEFV
